# Data from article PMC5490399, “Glycosaminoglycan Binding and Non-Endocytic Membrane Translocation of Cell-Permeable Octaarginine Monitored by Real-Time In-Cell NMR Spectroscopy” (Pharmaceuticals, 2017).
# Values joined by “and” are separate entries in the source; they are usually repeats but may differ in a detail not shown here. Equal entries are not always repeated.
# Key:
# ITC of R8 with heparin = type: binding, porcine; conditions: 25 °C
# [1] = ITC of R8 with EPC/EPG LUV (model cell membrane); type: binding; conditions: 25 °C
# [2] = 10 mM Tris-HCl, 15 mM NaCl, pH 7.4
structure (smiles),measurement,setting,value
"CC(=O)N[C@@H](CCCNC(=N)N)C(=O)N[C@@H](CCCNC(=N)N)C(=O)N[C@@H](CCCNC(=N)N)C(=O)N[C@@H](CCCNC(=N)N)C(=O)N[C@@H](CCCNC(=N)N)C(=O)N[C@@H](CCCNC(=N)N)C(=O)N[C@@H](CCCNC(=N)N)C(=O)N[C@@H](CCCNC(=N)N)C(N)=O [R8, octaarginine]",ΔH°,ITC of R8 with heparin; [2],-9.6 ± 0.53 kcal/mol
same,TΔS°,"ITC of R8 with heparin; pH 7.4, TΔS° = ΔH° − ΔG°",1.3 ± 0.54 kcal/mol
same,ΔG° (binding free energy),"ITC of R8 with heparin; pH 7.4, ΔG° = −RTlnK",-10.9 kcal/mol and -10.9 ± 0.10 kcal/mol
same,ΔH°,[1]; [2],-6.3 ± 0.10 kcal/mol
same,"Binding Stoichiometry (n), lipid/R8","[1]; 10 mM Tris-HCl, 15 mM NaCl, pH 7.4, R8 (51 μM) injected into EPC/EPG LUV (500 μM), PC/PG = 4/1, molar ratio lipid/peptide, single site binding model",~ 100 and 100
same,TΔS°,"[1]; pH 7.4, TΔS° = ΔH° − ΔG°",2.1 ± 0.10 kcal/mol
same,ΔG° (binding free energy),"[1]; pH 7.4, ΔG° = −RTlnK",-8.4 kcal/mol and -8.4 ± 0.10 kcal/mol
